The values that follow come from US5493006A (The Salk Institute for Biological Studies, priority 1993, dated 1996).

This data set is described as follows: general procedure: Boc solid-phase peptide synthesis; MBHA hydrochloride resin (Bachem), about 0.43 to 0.46 mequiv/gm; DCC (DCC/HOBt for Asn, Gln); BOP/DIEA for on-resin cyclization. The following applies: whole synthesis; for final purity (method not given): purity further confirmed by MS and capillary zone electrophoresis.

HELM strings list residues between dots; [ac] is acetyl, [am] amide, other brackets name non-standard units.

Consider “PEPTIDE1{[dF].H.L.L.R.E.V.L.C.[Nle].A.C.A.E.Q.L.A.Q.Q.A.H.S.N.R.K.L.[Nle].E.I.I.[am]}$PEPTIDE1,PEPTIDE1,9:R3-12:R3$$$V2.0”, for which the isolated yield came to 4.4%.
“PEPTIDE1{[dF].H.L.L.R.E.V.L.E.[Nle].A.K.A.E.Q.L.A.Q.Q.A.H.S.N.R.K.L.[Nle].E.I.I.[am]}$PEPTIDE1,PEPTIDE1,9:R3-12:R3$$$V2.0”: the “final purity (method not given)” value is “about 98%”. Moreover, under “of expected amount from the original substitution of the MBHA resin”, the isolated yield came to 3.6%.
With “PEPTIDE1{[dF].H.L.L.R.E.V.L.E.[Nle].A.[Orn].A.E.Q.L.A.Q.Q.A.H.S.N.R.K.L.[Nle].E.I.I.[am]}$PEPTIDE1,PEPTIDE1,9:R3-12:R3$$$V2.0”, the “final purity (method not given)” value is recorded as “about 98%”.
